Values from PubChem BioAssay AID1224828 (NIAID, 2016).

Purpose: 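Knock-downs that increase or decrease LPS-induced p65 nuclear translocation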 (primary screen)
System: mouse RAW264.7 G9 macrophage reporter cells (GFP-p65, Tnf promoter-mCherry)
Reagents: siRNA pool against mouse genes, 100 nM
Timing: 2 days siRNA transfection, then 40 min LPS before fixation
Challenge: LPS (Salmonella minnesota R595) at 10 ng/ml
Measurement: 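Imaged p65 nuclear translocation ratio, normalised to the plate median, converted to robust z-scores and averaged across two replicates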
Reading the numbers: p65 translocation robust z-score: higher = more nuclear NF-kappaB p65 after LPS than the plate median; nuclear/cytoplasmic p65 ratio: higher = more nuclear NF-kappaB p65
Rule for the call: 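Active if robust z is above 3.3 (negative regulators) or below -1.56, the Tlr4 control median (positive regulators); activity score 50 or more; control wells not called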
Calls: active = hit (p65 shift raised or lowered); inactive = no clear change
This is one part, drawn at random, of about 17,000 reagents tested. Over the whole deposit, 762 (4.5%) were called active. 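Active calls include both raised and lowered p65 entry, mostly lowered; wells with fewer than 50 cells lack a z-score.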 Raw values vary from plate to plate and are shown uncorrected. A number with no mark means an inactive call. The numbers tell different reagents against one gene apart. No sequences are given here.

Target gene | reagent | p65 translocation robust z-score | nuclear/cytoplasmic p65 ratio, rep 1 | nuclear/cytoplasmic p65 ratio, rep 2 | low cell count flag
Herc6 (hect domain and RLD 6) | 1 | -0.58 | 1.57 | 1.49 | enough cells to score
Rplp1 (ribosomal protein lateral stalk subunit P1) | 1 | – | 1.32 | 1.26 | fewer than 50 cells per well; well left out of scoring
Eif3j1 (eukaryotic translation initiation factor 3, subunit J1) | 1 | -1.13 | 1.39 | 1.15 | enough cells to score
Or5m9b (olfactory receptor family 5 subfamily M member 9B) | 1 | 1.17 | 1.83 | 1.76 | enough cells to score
Lefty1 (left right determination factor 1) | 1 | 0.06 | 1.55 | 1.51 | enough cells to score
Drg2 (developmentally regulated GTP binding protein 2) | 1 | -0.04 | 1.53 | 1.32 | enough cells to score
Ano10 (anoctamin 10) | 1 | 0.24 | 1.57 | 1.8 | enough cells to score
Or10ak16 (olfactory receptor family 10 subfamily AK member 16) | 1 | 0.24 | 1.59 | 1.5 | enough cells to score
Ca4 (carbonic anhydrase 4) | 1 | 0.01 | 1.6 | 1.78 | enough cells to score
Nipsnap1 (nipsnap homolog 1) | 1 | 1.86 | 2.16 | 1.67 | enough cells to score
Dnajc5g (DnaJ heat shock protein family (Hsp40) member C5 gamma) | 1 | – | 1.33 | 1.1 | fewer than 50 cells per well; well left out of scoring
Mpv17l (Mpv17 transgene, kidney disease mutant-like) | 1 | 0.87 | 2.04 | 1.62 | enough cells to score
Rtl1 (retrotransposon Gaglike 1) | 1 | 0.59 | 1.55 | 1.24 | enough cells to score
Sit1 (suppression inducing transmembrane adaptor 1) | 1 | 0.04 | 1.38 | 1.28 | enough cells to score
Dmac2 (distal membrane arm assembly complex 2) | 1 | – | 1.21 | 1.25 | fewer than 50 cells per well; well left out of scoring
Eif2ak4 (eukaryotic translation initiation factor 2 alpha kinase 4) | 1 | – | 1.49 | 1.52 | fewer than 50 cells per well; well left out of scoring
Neurl1b (neuralized E3 ubiquitin protein ligase 1B) | 1 | -1.05 | 1.16 | 1.38 | enough cells to score
Rem2 (rad and gem related GTP binding protein 2) | 1 | 1.81 | 1.63 | 1.45 | enough cells to score
Enox1 (ecto-NOX disulfide-thiol exchanger 1) | 1 | 0.51 | 1.66 | 1.61 | enough cells to score
Aga (aspartylglucosaminidase) | 1 | -0.08 | 1.47 | 1.74 | enough cells to score
Bub3 (BUB3 mitotic checkpoint protein) | 1 | -1.26 | 1.48 | 1.38 | enough cells to score
Sertm1 (serine rich and transmembrane domain containing 1) | 1 | 1.16 | 1.57 | 1.56 | enough cells to score
Arhgap8 (Rho GTPase activating protein 8) | 1 | – | 1.36 | 1.39 | fewer than 50 cells per well; well left out of scoring
Rufy3 (RUN and FYVE domain containing 3) | 1 | -2.14 (active) | 1.23 | 1.27 | enough cells to score
Bche (butyrylcholinesterase) | 1 | -0.08 | 1.53 | 1.67 | enough cells to score
Ube2e3 (ubiquitin-conjugating enzyme E2E 3) | 1 | -0.13 | 1.61 | 1.37 | enough cells to score
Ca9 (carbonic anhydrase 9) | 1 | -0.79 | 1.42 | 1.57 | enough cells to score
Abcb1b (ATP-binding cassette, sub-family B member 1B) | 1 | 0.14 | 1.61 | 1.73 | enough cells to score
Cndp1 (carnosine dipeptidase 1) | 1 | 0.61 | 1.69 | 1.88 | enough cells to score
Bmyc (brain expressed myelocytomatosis oncogene) | 1 | – | 1.08 | 1.35 | fewer than 50 cells per well; well left out of scoring
Ndufb11b (NADH:ubiquinone oxidoreductase subunit B11B) | 1 | -1.56 | 1.09 | 1.32 | enough cells to score
Slc30a7 | 1 | – | 2.12 | 1.16 | fewer than 50 cells per well; well left out of scoring
Abraxas1 (BRCA1 A complex subunit) | 1 | -0.09 | 1.41 | 1.38 | enough cells to score
Abraxas1 (BRCA1 A complex subunit) | 2 | -1.1 | 1.24 | 1.13 | enough cells to score
Cfhr1 (complement factor H-related 1) | 1 | -0.08 | 1.56 | 1.79 | enough cells to score
Tub (TUB bipartite transcription factor) | 1 | -0.68 | 1.4 | 1.42 | enough cells to score

Quoted from the entries so far for reference:
Target gene | reagent | p65 translocation robust z-score | nuclear/cytoplasmic p65 ratio, rep 1 | nuclear/cytoplasmic p65 ratio, rep 2 | low cell count flag
Bche (butyrylcholinesterase) | 1 | -0.08 | 1.53 | 1.67 | enough cells to score
Ube2e3 (ubiquitin-conjugating enzyme E2E 3) | 1 | -0.13 | 1.61 | 1.37 | enough cells to score
Ca9 (carbonic anhydrase 9) | 1 | -0.79 | 1.42 | 1.57 | enough cells to score
Abcb1b (ATP-binding cassette, sub-family B member 1B) | 1 | 0.14 | 1.61 | 1.73 | enough cells to score
Cndp1 (carnosine dipeptidase 1) | 1 | 0.61 | 1.69 | 1.88 | enough cells to score
Bmyc (brain expressed myelocytomatosis oncogene) | 1 | – | 1.08 | 1.35 | fewer than 50 cells per well; well left out of scoring

Continued.
Target gene | reagent | p65 translocation robust z-score | nuclear/cytoplasmic p65 ratio, rep 1 | nuclear/cytoplasmic p65 ratio, rep 2 | low cell count flag
Fkbp1b (FK506 binding protein 1b) | 1 | -1.33 | 1.43 | 1.25 | enough cells to score
Vps37c (vacuolar protein sorting 37C) | 1 | 1.63 | 1.66 | 1.58 | enough cells to score
Frg1 (FSHD region gene 1) | 1 | 0.76 | 1.73 | 1.54 | enough cells to score
Calb1 (calbindin 1) | 1 | 0.13 | 1.6 | 1.66 | enough cells to score
Atxn10 (ataxin 10) | 1 | 0.52 | 1.49 | 1.28 | enough cells to score
Rundc3a (RUN domain containing 3A) | 1 | 0.83 | 1.65 | 1.62 | enough cells to score
Prrg2 (proline-rich Gla (G-carboxyglutamic acid) polypeptide 2) | 1 | – | 1.27 | 1.21 | fewer than 50 cells per well; well left out of scoring
Hnrnph1 (heterogeneous nuclear ribonucleoprotein H1) | 1 | – | 1.27 | 1.11 | fewer than 50 cells per well; well left out of scoring
Fstl1 (follistatin-like 1) | 1 | -1.28 | 1.29 | 1.18 | enough cells to score
Rgs17 (regulator of G-protein signaling 17) | 1 | 0.12 | 1.5 | 1.57 | enough cells to score
Uty | 1 | – | 1.23 | 1.25 | fewer than 50 cells per well; well left out of scoring
Vps26b (VPS26 retromer complex component B) | 1 | 0.39 | 1.55 | 1.37 | enough cells to score
Btbd7 (BTB domain containing 7) | 1 | -0.97 | 0 | 1.39 | enough cells to score
Ube2e1 (ubiquitin-conjugating enzyme E2E 1) | 1 | 0.7 | 1.63 | 1.58 | enough cells to score
Asb15 (ankyrin repeat and SOCS box-containing 15) | 1 | 1.04 | 1.75 | 1.66 | enough cells to score
C130058G22RIK | 1 | 0.53 | 1.48 | 1.63 | enough cells to score
Pramel32 (PRAME like 32) | 1 | 1.48 | 1.87 | 1.96 | enough cells to score
Med25 (mediator complex subunit 25) | 1 | 0.43 | 1.48 | 1.49 | enough cells to score
Clrn1 (clarin 1) | 1 | -0.11 | 1.54 | 1.45 | enough cells to score
Mrto4 (mRNA turnover 4, ribosome maturation factor) | 1 | 0.41 | 1.46 | 1.66 | enough cells to score
Tent2 (terminal nucleotidyltransferase 2) | 1 | – | 1.92 | 1.37 | fewer than 50 cells per well; well left out of scoring
Cmtr2 (cap methyltransferase 2) | 1 | -0.54 | 1.46 | 1.79 | enough cells to score
Chaf1a (chromatin assembly factor 1, subunit A) | 1 | 0.16 | 1.4 | 1.4 | enough cells to score
